Only a part is listed here, and it is no random draw.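 Testing used 96-well plates and a 48-hour single-concentration exposure. Example: -40 means 40% of the starting cells died.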 Active and inactive are the calls of the source. The calls were made as follows: active = growth percent below 10; inactive = the rest.
How the values were obtained:
PC-3 prostate = experiment: NCI-60 one-dose screen, 48 h (100 = growth as untreated, 0 = no growth, -100 = all killed); details: 10 µM
CCRF-CEM leukemia = experiment: as above; details: 10 µM

Compound: COc1c(O)cc2c(c1OC)-c1ccc(SC)c(=O)cc1C(NC(C)=O)CC2 (configuration not stated)
- growth (PC-3 prostate): active: -14.2%
- growth (CCRF-CEM leukemia): active: 1.31%

Source: PubChem BioAssay (NCI)
